Laboratory results taken from article PMC12800308.
No constants are given. Whether binding was seen depends on the method and setting. Binding seen in cells or lysates may run through a third protein.

By UniProt entry, the sequences of proteins in these tests, tags left out.
UniProt Q01094: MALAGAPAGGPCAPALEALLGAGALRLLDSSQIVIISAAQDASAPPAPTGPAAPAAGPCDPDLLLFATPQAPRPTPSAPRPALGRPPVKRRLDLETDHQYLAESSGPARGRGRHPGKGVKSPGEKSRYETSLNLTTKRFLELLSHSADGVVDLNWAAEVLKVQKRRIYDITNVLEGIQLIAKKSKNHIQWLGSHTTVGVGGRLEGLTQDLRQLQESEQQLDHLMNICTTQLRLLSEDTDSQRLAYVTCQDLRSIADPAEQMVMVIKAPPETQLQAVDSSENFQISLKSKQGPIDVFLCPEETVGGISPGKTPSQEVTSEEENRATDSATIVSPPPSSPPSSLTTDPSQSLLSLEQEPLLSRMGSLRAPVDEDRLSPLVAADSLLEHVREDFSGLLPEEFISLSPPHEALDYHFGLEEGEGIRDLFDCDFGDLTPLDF
UniProt O75530: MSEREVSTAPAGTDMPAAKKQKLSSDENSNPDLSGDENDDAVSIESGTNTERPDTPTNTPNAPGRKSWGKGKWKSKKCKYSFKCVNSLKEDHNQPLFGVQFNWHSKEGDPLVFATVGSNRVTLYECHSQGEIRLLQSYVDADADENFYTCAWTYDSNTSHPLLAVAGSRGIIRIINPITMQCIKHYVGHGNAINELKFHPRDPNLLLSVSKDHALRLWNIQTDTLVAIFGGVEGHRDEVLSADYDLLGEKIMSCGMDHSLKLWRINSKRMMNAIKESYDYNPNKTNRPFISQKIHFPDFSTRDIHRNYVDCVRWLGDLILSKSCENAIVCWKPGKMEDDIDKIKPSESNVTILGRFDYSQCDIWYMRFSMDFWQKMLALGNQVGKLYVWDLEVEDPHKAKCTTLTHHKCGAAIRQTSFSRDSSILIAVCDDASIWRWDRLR
UniProt Q15022: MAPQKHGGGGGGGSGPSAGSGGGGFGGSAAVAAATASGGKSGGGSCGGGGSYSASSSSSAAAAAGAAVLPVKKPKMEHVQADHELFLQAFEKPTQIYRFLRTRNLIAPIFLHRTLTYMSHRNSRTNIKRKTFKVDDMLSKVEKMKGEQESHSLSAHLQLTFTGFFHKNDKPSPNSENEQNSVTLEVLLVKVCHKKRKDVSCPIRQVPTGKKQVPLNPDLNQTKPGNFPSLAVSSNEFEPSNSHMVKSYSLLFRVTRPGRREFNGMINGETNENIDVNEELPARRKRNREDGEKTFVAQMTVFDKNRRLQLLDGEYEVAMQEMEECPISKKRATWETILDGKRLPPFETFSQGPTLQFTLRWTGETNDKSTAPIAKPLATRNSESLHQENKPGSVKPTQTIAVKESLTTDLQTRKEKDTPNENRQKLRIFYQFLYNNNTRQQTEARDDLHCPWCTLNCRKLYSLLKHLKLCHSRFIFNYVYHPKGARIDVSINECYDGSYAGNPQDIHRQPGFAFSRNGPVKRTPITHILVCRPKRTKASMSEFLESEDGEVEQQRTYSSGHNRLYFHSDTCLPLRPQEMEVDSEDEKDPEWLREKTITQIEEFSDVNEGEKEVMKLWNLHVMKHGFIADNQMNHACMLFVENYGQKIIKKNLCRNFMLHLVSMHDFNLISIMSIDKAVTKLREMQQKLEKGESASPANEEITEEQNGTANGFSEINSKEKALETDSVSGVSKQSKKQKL

Target: E2F1 (human (all cell lines of the paper are human)) (UniProt Q01094)
Assay: co-IP; E2F1 and PRC2 components (Fig. 2j); cells, bait and tags not stated; same IP buffers

binding	Substance
no binding	EED (from UniProt O75530 1-441)
no binding	SUZ12 (from UniProt Q15022 1-739)
